Molecular target: Urokinase plasminogen activator (Homo sapiens (Human), UniProt P00749)
Assay: inhibition of UK activity; Ki by non-linear regression (Enzfitter) of free enzyme versus inhibitor concentration
Procedure: Fractional enzyme activities for each inhibitor-UK interaction of the above discussed inhibitors were determined by the assay method of Empie and Laskowski (Empie, M. W. et al., *Biochem.* 21:2274–2284 (1982)), as adapted from Green and Work (Green, N. M. et al., Biochem. J. 54:347–352 (1953)). The concentration of UK used for these reactions was 35 nM. The reactions were carried out in Buffer C. […] These five mutants include the four detailed above (88, 89, 80, AND 91), and also a mutant with arginine at the P1 site of OM3TKY (P1-Arg). […] The values for PSTI, PAI-1, PAI-2, and Nexin-1 were obtained from Turpeinen, U. et al. (*Biochem. J.* 254:911–914 (1988)), Kruithof, C.K.O. et al. (Thromb.-Haemost. 55::65–68 (1986)), Christensen, U. et al. (Thromb.-Haemost. 48:24–26 (1982)), and Stein, P. E. et al. (*Nature* 347:99–102 (1990)), respectively.
K_i values for the wild-type and mutant inhibitors versus urokinase were also determined by non-linear regression of the following equation: […]
The non-linear regression was done using the program Enzfitter, by Robin Leatherbarrow. E_o represents a total enzyme concentration in the reaction, I_o represents total inhibitor concentration, E is the free enzyme for a given inhibitor concentration and K_i is the equilibrium constant for the inhibitor. […] Enzyme and inhibitor concentrations used were determined as mentioned above.

B1: wild type turkey ovomucoid third domain (other)
chain: VDCSEYPKPACTLEYRPLCGSDNKTYGNKCNFCNAVVESNGTLTLSHFGKC
Binder B1 has a Ki of 796 nM.

— patent US5550213, “Inhibitors of urokinase plasminogen activator” (Rutgers, The State University of New Jersey, dated 1996)
